Assay results taken from patent US20240398989A1, “METHODS AND COMPOSITIONS FOR DIAGNOSIS AND TREATMENT OF METABOLIC DISORDERS” (The Broad Institute, Inc., priority 2021, published 2024).
The exact form of at least one protein or probe is not confirmed. At least one result comes from cells or an extract, where the contact may be indirect. A weaker result is weaker than the reference pair of the same experiment.

System: POU2F2 (putative + adipocyte progenitor nuclear extract) (Homo sapiens)
Assay: EMSA
Conditions: 1 mM MgCl2, 50 mM NaCl, poly(dI-dC), 4 C, protein in an extract, label: Cy5 forward strand

| Sequence | binding result (T-to-C change alters binding, less than T allele, variant of rs6712203 T allele probe) | binding result (increased binding to T allele, POU2F2 identity suggested by motif and IGR analysis) |
| --- | --- | --- |
| TTAATTTGCCTCATTCATCACATGCAATTCTGGCAAGGAA (double strand) [rs6712203 C allele probe] | binds more weakly |  |
| TTAATTTGCCTCATTCATCATATGCAATTCTGGCAAGGAA (double strand) [rs6712203 T allele probe] |  | binds |
